{"source": "PubChem BioAssay AID2685", "about": "(National Center for Advancing Translational Sciences (NCATS), 2010)", "assay": "qHTS Assay for Lipid Storage Modulators in Drosophila S3 Cells;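 on cell number change: cells counted by Cell Tracker Red CMTPX staining in the red channel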", "details": "BODIPY lipid droplet fluorescence, 18-24 h; for cell number change: measured here: cell count max response, cells fed with added oleic acid", "method_in_brief": "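Drosophila S3 cells got compounds at several concentrations plus oleic acid (400 uM solution). Laser-scanning cytometry with 488 nm excitation read lipid droplets at 500-530 nm and cells at 575-640 nm. Percent activity was relative to 20 uM Triacsin C.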", "key": {"[1]": {"details": "measured here: lipid fluorescence (Fed channel) AC50, cells fed with added oleic acid"}, "[2]": {"details": "measured here: cell number channel AC50, cells fed with added oleic acid"}}, "note": "This is one part of the list. These are further read-outs of the screen, such as a control signal, another cell line or another target. No call is given for them. The list favours compounds with an active or inconclusive main result. Words in brackets tell the shape of the fitted curve; partial curves, single points and poor fits give uncertain potencies."}
{"smiles": "COc1ccc(C2SCCN2S(=O)(=O)c2ccc(NC(C)=O)cc2)cc1OC", "note": "(configuration not stated)", "values": [{"measurement": "cell number change", "result": 5.24, "unit": "%"}, {"measurement": "AC50", "setting": "[1]", "result": "20.6 µM [rising, partial curve]"}]}
{"smiles": "CCN(CC)C(=O)Nc1ccc(Br)cc1", "values": [{"measurement": "cell number change", "result": -46.1, "unit": "%"}, {"measurement": "AC50", "setting": "[1]", "result": "29.1 µM [falling, single point]"}]}
{"smiles": "CSc1ccccc1NC(=O)CN(C)C(=O)CCc1c[nH]c2ccccc12", "values": [{"measurement": "cell number change", "result": -2.56, "unit": "%"}, {"measurement": "AC50", "setting": "[1]", "result": "1.3 µM [falling, full curve]"}]}
{"smiles": "COc1cc(C(=S)N2CCOCC2)ccc1OC(=O)c1ccccc1", "values": [{"measurement": "cell number change", "result": -16.9, "unit": "%"}]}
{"smiles": "COc1ccc(-c2cc(C(=O)O)[nH]n2)cc1OC", "values": [{"measurement": "AC50", "setting": "[1]", "result": "9.2 µM [falling, partial curve]"}]}
{"smiles": "CCc1nc2ccc(C(=O)NCCc3ccc(OC)cc3)cc2nc1CC", "values": [{"measurement": "cell number change", "result": -60.3, "unit": "%"}, {"measurement": "AC50", "setting": "[2]", "result": "23.1 µM [falling, partial curve, poor fit]"}]}
{"smiles": "Cc1ccsc1/C=N/NC(=O)c1nnn(-c2nonc2N)c1C(C)C", "values": [{"measurement": "cell number change", "result": -32.2, "unit": "%"}, {"measurement": "AC50", "setting": "[2]", "result": "0.146 µM [falling, full curve, poor fit]"}]}
{"smiles": "CCC(C)NC(=O)c1ccccc1NC(=O)c1ccc(CSc2ccccc2)cc1", "note": "(configuration not stated)", "values": [{"measurement": "cell number change", "result": -13.9, "unit": "%"}]}
{"smiles": "Cc1ccc(S(=O)(=O)N2CCOCC2)cc1C(=O)NCC1CCCO1", "note": "(configuration not stated)", "values": [{"measurement": "cell number change", "result": 10.6, "unit": "%"}, {"measurement": "AC50", "setting": "[1]", "result": "0.164 µM [rising, full curve, poor fit]"}]}
{"smiles": "Cc1ccc(S(=O)(=O)NCC(=O)N(CC(=O)NC(C)(C)C)Cc2ccc3c(c2)OCO3)cc1", "values": [{"measurement": "cell number change", "result": -0.84, "unit": "%"}]}
{"smiles": "O=C(/C=C/c1cccc([N+](=O)[O-])c1)c1ccc2c(c1)OCCO2", "values": [{"measurement": "AC50", "setting": "[1]", "result": "16.4 µM [falling, partial curve, poor fit]"}]}
{"smiles": "COC(=O)c1nc(NC(=O)C(C)(C)C)n[nH]1", "values": [{"measurement": "cell number change", "result": -9.96, "unit": "%"}, {"measurement": "AC50", "setting": "[1]", "result": "29.1 µM [falling, single point]"}]}
{"smiles": "CN(C)c1ccc(NC(=O)c2ccc(COc3cccc(Cl)c3)o2)cc1", "values": [{"measurement": "cell number change", "result": 48.7, "unit": "%"}, {"measurement": "AC50", "setting": "[2]", "result": "0.259 µM [rising, partial curve, poor fit]"}]}
{"smiles": "CC(C)C1Nc2c(C(=O)O)cccc2C(Nc2ccccc2C(=O)O)C1(C)C", "note": "(configuration not stated)", "values": [{"measurement": "cell number change", "result": -31.4, "unit": "%"}, {"measurement": "AC50", "setting": "[2]", "result": "0.82 µM [falling, full curve]"}, {"measurement": "AC50", "setting": "[1]", "result": "0.517 µM [falling, single point]"}]}
{"smiles": "Cc1ccc(Nc2nnc(SCC(=O)NC3CCS(=O)(=O)C3)s2)c(C)c1", "note": "(configuration not stated)", "values": [{"measurement": "cell number change", "result": -24.3, "unit": "%"}, {"measurement": "AC50", "setting": "[1]", "result": "6.51 µM [falling, single point]"}]}
{"smiles": "Cn1cnnc1SCc1ccc(C(=O)N=Nc2c(O)n(C)c3ccccc23)cc1", "values": [{"measurement": "cell number change", "result": 22.5, "unit": "%"}, {"measurement": "AC50", "setting": "[1]", "result": "0.411 µM [rising, full curve]"}]}
{"smiles": "Cc1cccc(-c2noc(CNS(=O)(=O)c3ccccc3)n2)c1", "values": [{"measurement": "cell number change", "result": 5.45, "unit": "%"}, {"measurement": "AC50", "setting": "[1]", "result": "6.51 µM [rising, single point]"}]}
{"smiles": "CCOc1ccc(CN(C(=O)c2ccccn2)c2ccc(OC)c(Cl)c2)cc1", "values": [{"measurement": "cell number change", "result": 1.9, "unit": "%"}, {"measurement": "AC50", "setting": "[1]", "result": "29.1 µM [falling, single point]"}]}
